{
  "sequences": {"note": "Chains of the proteins cited; added tags and fusions are not shown.", "UniProt P38532": "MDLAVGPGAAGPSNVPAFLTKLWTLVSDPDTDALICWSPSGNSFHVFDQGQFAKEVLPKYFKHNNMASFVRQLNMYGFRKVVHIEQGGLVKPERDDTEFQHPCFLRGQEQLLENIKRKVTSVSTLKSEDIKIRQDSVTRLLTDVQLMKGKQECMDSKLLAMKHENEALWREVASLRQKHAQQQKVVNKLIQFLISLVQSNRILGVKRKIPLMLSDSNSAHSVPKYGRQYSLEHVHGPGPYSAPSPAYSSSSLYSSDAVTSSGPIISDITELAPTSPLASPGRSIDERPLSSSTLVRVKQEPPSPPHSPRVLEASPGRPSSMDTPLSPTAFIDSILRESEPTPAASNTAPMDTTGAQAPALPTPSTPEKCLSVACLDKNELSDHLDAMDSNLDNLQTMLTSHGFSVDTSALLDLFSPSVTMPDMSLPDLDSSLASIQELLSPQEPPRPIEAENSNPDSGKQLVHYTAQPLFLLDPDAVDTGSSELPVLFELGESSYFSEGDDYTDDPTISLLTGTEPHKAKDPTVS", "UniProt P02340": "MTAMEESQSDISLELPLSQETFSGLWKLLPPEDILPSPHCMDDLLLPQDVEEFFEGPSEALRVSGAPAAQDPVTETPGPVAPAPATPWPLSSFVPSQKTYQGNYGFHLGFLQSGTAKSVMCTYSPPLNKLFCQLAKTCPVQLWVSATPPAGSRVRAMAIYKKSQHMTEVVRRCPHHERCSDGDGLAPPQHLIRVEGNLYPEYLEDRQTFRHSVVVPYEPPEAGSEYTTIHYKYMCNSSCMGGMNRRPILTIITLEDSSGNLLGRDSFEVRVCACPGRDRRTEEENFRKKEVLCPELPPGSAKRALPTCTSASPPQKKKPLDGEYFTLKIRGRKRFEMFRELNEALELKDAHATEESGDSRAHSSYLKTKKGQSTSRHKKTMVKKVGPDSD", "UniProt Q9WTL8": "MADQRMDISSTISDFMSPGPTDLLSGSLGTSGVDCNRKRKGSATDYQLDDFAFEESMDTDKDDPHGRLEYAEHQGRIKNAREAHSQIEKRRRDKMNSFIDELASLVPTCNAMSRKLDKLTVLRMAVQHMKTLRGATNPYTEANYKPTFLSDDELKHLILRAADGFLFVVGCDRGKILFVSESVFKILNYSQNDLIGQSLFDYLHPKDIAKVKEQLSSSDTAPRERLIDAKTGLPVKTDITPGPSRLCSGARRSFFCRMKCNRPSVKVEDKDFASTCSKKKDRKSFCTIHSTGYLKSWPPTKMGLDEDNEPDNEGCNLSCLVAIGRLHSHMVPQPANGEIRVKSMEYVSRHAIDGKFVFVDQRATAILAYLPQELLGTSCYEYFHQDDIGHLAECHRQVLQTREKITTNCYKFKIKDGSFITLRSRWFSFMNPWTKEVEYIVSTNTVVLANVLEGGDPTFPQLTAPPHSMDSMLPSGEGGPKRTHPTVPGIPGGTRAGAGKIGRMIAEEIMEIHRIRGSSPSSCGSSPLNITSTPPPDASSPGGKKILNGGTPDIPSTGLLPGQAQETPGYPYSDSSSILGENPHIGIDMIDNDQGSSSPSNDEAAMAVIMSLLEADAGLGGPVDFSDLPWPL"},
  "source": "paper PMC6250677",
  "key": {"[1]": {"target": "ELuc N-terminal fragment-fused mouse HSF1 (split-luciferase probe) (mouse) (UniProt P38532)", "experiment": "split reporter; split-luciferase complementation in living U2OS cells after UV irradiation; real-time bioluminescence"}, "[2]": {"target": "ELucC-fused full-length mouse p53 (split-luciferase probe) (mouse) (UniProt P02340)", "experiment": "split reporter; split-luciferase complementation in living U2OS cells after UV irradiation; real-time bioluminescence"}, "[3]": {"target": "ELucC-fused full-length mouse p53 (split-luciferase probe) (mouse) (UniProt P02340)", "experiment": "split reporter; split emerald luciferase complementation in living NIH3T3 cells; UV irradiation 2, 5 and 10 J m^-2; real-time bioluminescence"}, "[4]": {"target": "heat-shock factor-1 (HSF1), endogenous in NIH3T3 cells (mouse (endogenous in NIH3T3)) (UniProt P38532)", "experiment": "co-IP; endogenous proteins in NIH3T3 lysate (NP-40 lysis buffer: 10 mM Tris-HCl pH 7.4, 150 mM NaCl, 5 mM EDTA, 50 mM NaF, 0.5% NP-40); cells unirradiated or UV irradiated (254 nm, 10 J m^-2), sampled at 2 or 4 h; IP with anti-HSF1, anti-p53 or anti-BMAL1 antibody and protein G-sepharose, 6 h at 4 °C; immunoblot"}, "[5]": {"target": "tumor suppressor p53, endogenous in NIH3T3 cells (mouse (endogenous in NIH3T3)) (UniProt P02340)", "experiment": "co-IP; endogenous proteins in NIH3T3 lysate (NP-40 lysis buffer: 10 mM Tris-HCl pH 7.4, 150 mM NaCl, 5 mM EDTA, 50 mM NaF, 0.5% NP-40); cells unirradiated or UV irradiated (254 nm, 10 J m^-2), sampled at 2 or 4 h; IP with anti-HSF1, anti-p53 or anti-BMAL1 antibody and protein G-sepharose, 6 h at 4 °C; immunoblot"}, "[6]": {"target": "brain and muscle ARNT-like protein-1 (BMAL1), endogenous in NIH3T3 cells (mouse (endogenous in NIH3T3)) (UniProt Q9WTL8)", "experiment": "co-IP; endogenous proteins in NIH3T3 lysate (NP-40 lysis buffer: 10 mM Tris-HCl pH 7.4, 150 mM NaCl, 5 mM EDTA, 50 mM NaF, 0.5% NP-40); cells unirradiated or UV irradiated (254 nm, 10 J m^-2), sampled at 2 or 4 h; IP with anti-HSF1, anti-p53 or anti-BMAL1 antibody and protein G-sepharose, 6 h at 4 °C; immunoblot"}},
  "note": "These are yes or no findings as the source states them, for the method shown. Binding seen in cells or lysates may run through a third protein. Some entries that bind do so weakly or less than the wild type.",
  "data": [
    {"substance": "BMAL1 split-luciferase probe (ectopic BMAL1 in U2OS cells) (from UniProt Q9WTL8 1-632)", "values": [
      {"measurement": "binding", "setting": "[1]", "result": "binds"}
    ]},
    {"substance": "ELuc N-terminal fragment-fused mouse HSF1 (split-luciferase probe) (from UniProt P38532 1-525)", "values": [
      {"measurement": "binding", "setting": "[2]", "result": "binds"},
      {"measurement": "binding", "setting": "[3]", "result": "binds"}
    ]},
    {"substance": "brain and muscle ARNT-like protein-1 (BMAL1), endogenous in NIH3T3 cells (from UniProt Q9WTL8 1-632)", "values": [
      {"measurement": "binding", "setting": "[4]", "result": "binds"}
    ]},
    {"substance": "heat-shock factor-1 (HSF1), endogenous in NIH3T3 cells (from UniProt P38532 1-525)", "values": [
      {"measurement": "binding", "setting": "[5]", "result": "binds"},
      {"measurement": "binding", "setting": "[6]", "result": "binds"}
    ]},
    {"substance": "tumor suppressor p53, endogenous in NIH3T3 cells (from UniProt P02340 1-390)", "values": [
      {"measurement": "binding", "setting": "[4]", "result": "binds"}
    ]}
  ]
}
